Experimental data as given in the supplement of paper PMC8256030.
Counter-ions that a name gives are not always drawn. The list shows a part of the results. Repeats in this data set agree poorly, so a single value says little.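 HEK293T cells were given each compound shortly before transfection with a reporter in which red mCherry is followed by the SARS-CoV-2 frameshift element and then GFP in the −1 frame, so GFP appears only after frameshifting.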

Assays:
[1] = tested on: SARS-CoV-2 -1 PRF reporter mCherry-FSE-GFP(-1); test: mCherry (red) intensity as percent of control; higher = higher upstream reporter expression; conditions: 10 µM; 24 h; HEK293T
[2] = tested on: SARS-CoV-2 -1 PRF reporter mCherry-FSE-GFP(-1); test: percent effect, decrease of GFP/mCherry ratio (-1 PRF reporter) relative to controls; higher = stronger frameshift inhibition; conditions: 10 µM; 24 h; HEK293T
HEK293T = test: percent viability (nuclei count) relative to control; higher = more viable cells; conditions: 10 µM; 24 h

Structure (SMILES) | mCherry [1] | percent effect [2] | percent viability (HEK293T)
O=C(COc1ccc(Cl)cc1)N1CCN(Cc2ccc3c(c2)OCO3)CC1 [fipexide] | 107% | -0.407% | 
Oc1ccc(C2CNCCc3c2cc(O)c(O)c3Cl)cc1 (stereo unspecified) [Fenoldopam·HCl] | 71.4% | -2.61% | 
C[C@]12CC[C@@H]3c4ccc(O)cc4C[C@@H](CCCCCCCCC[S+]([O-])CCCC(F)(F)C(F)(F)F)[C@H]3[C@@H]1CC[C@@H]2O (stereo partly specified) [Fulvestrant] | 80.7% | -6.45% | 
N[C@@H](CSCC(=O)O)C(=O)O [carbocisteine] | 84.4% | -11.3% | 
CN(C)[C@@H]1C(=O)C(C(N)=O)=C(O)[C@@]2(O)C(=O)C3=C(O)c4c(O)cccc4C[C@H]3C[C@@H]12 [sancycline] | 45.2% | 0.667% | 
CO[C@@H]1[C@H](OC(=O)/C=C/C=C/C=C/C=C/C(=O)O)CC[C@]2(CO2)[C@H]1[C@@]1(C)O[C@@H]1CC=C(C)C [Fumagillin] | 67.9% | -2.68% | 
NCCS | 105% | -5.14% | 
Cc1nc2ccccc2n1Cc1ccc(Cl)cc1 [chlormidazole] | 103% | -9.6% | 
NC1CC1c1ccccc1 (stereo unspecified) | 111% | -5.05% | 252%
C[N+]1(C)CCCCC1COC(=O)C(O)(c1ccccc1)c1ccccc1 (stereo unspecified) [bevonium] | 72.1% | -1.92% | 373%
CCCN1CCC[C@@H]2Cc3n[nH]cc3C[C@H]21 [quinpirole] | 108% | -1.05% | 223%
C=CCC1(c2ccccc2)C(=O)NC(=O)NC1=O | 87.3% | -3.3% | 281%
NCC1(CC(=O)O)CCCCC1 | 88.3% | -5.7% | 133%

Arranged by length of the SMILES (falling): some entries from above.
Structure (SMILES) | mCherry [1] | percent effect [2] | percent viability (HEK293T)
CO[C@@H]1[C@H](OC(=O)/C=C/C=C/C=C/C=C/C(=O)O)CC[C@]2(CO2)[C@H]1[C@@]1(C)O[C@@H]1CC=C(C)C [Fumagillin] | 67.9% | -2.68% | 
CN(C)[C@@H]1C(=O)C(C(N)=O)=C(O)[C@@]2(O)C(=O)C3=C(O)c4c(O)cccc4C[C@H]3C[C@@H]12 [sancycline] | 45.2% | 0.667% | 
NCCS | 105% | -5.14% | 
